According to PubChem BioAssay AID270 (DTP/NCI, 2004):
The list is a part of this screen's results and no random one: it gathers tests that were run many times, whatever their T/C, doses with no T/C, and many T/C values between a quarter and a half above the control. Other doses and runs of a compound stand elsewhere. T/C is the treated group as % of the vehicle group. Schedule codes are those of the source, taken here to give the interval after Q, in days (D) or hours (H), and the number of doses after X. Some doses have a count of surviving animals in place of a T/C: the source files T/C as zero there, which appears to mark a toxic dose or a test without result, not a measured value. Some doses without a T/C left all or most animals alive at the check, yet need not have been tolerated: the source hardly ever lists a survival T/C far under the control, and the zero likely stands for such cases as well. Survivors were counted at the toxicity check, usually on the fifth day, unless a day is given; later deaths do not show. Some entries hold several experiments; the results are listed from low to high. Where survival is the endpoint, the PubChem record calls one and a half times the control and up active, and a quarter to a half above the control has no call in these data; cut-offs in other NCI protocols can differ. Some T/C values are followed by the survivors on the day toxicity was checked, most often the fifth; where none is given, no animal had died by that day. *1 amine or outer side, *2 acyl side, *3 side chain or, on linkers, in order; H or OH if unused. Where a SMILES comes first, the peptide text is derived from it. Bridges are numbered along the chain shown (N, C = ends). Roman numbers before positions name the chains, in order. [ ]: non-standard residue; d: D form. Actinocin(9to1) = Cc1c2oc3c(C)ccc(C(=O)[*:1])c3nc-2c(C(=O)[*:2])c(N)c1=O; aThr = C[C@H](O)[C@H](N)C(=O)O; NMeV = CN[C@H](C(=O)O)C(C)C; Sar = CNCC(=O)O

System: BDF1 mice, s.c. Lewis lung carcinoma, T/C %
Assay: NCI In Vivo Anticancer Drug Screen. Data for tumor model Lewis Lung Carcinoma (subcutaneous) in B6D2F1 (BDF1) mice
Procedure, shortened: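 Antitumor effect in vivo is scored from survival or tumor burden, reported as treated relative to vehicle controls.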

[1] = T/C endpoint: median survival time, dose: 50.0 micrograms/kg/injection, schedule: Q01DX009 (ip), vehicle: saline, higher T/C = longer survival
[2] = T/C endpoint: median survival time, dose: 100.0 micrograms/kg/injection, schedule: Q01DX009 (ip), vehicle: saline, higher T/C = longer survival

**Q.** Which survivor count (T/C endpoint: mean tumor weight, dose: 0.08 mg/kg/injection, schedule: Q01DX011 (ip), vehicle: saline, higher T/C = larger tumour) does the source give for `Cc1c2oc3c(C)ccc(C(=O)N[C@@H]4C(=O)N[C@H](C(C)C)C(=O)N5CCC[C@H]5C(=O)N(C)CC(=O)N(C)[C@@H](C(C)C)C(=O)O[C@H]4C)c3nc-2c(C(=O)N[C@@H]2C(=O)N[C@H](C(C)C)C(=O)N3CCC[C@H]3C(=O)N(C)CC(=O)N(C)[C@@H](C(C)C)C(=O)O[C@H]2C)c(N)c1=O` (I: [aThr][dV]P[Sar][NMeV] / II: [aThr][dV]P[Sar][NMeV]; ester I:1-I:C, II:1-II:C; linker I:N-II:N via Actinocin(9to1)) here?
**A.** 2 of 10

**Q.** And the T/C (T/C endpoint: median survival time, dose: 25.0 micrograms/kg/injection, schedule: Q01DX009 (ip), vehicle: saline, higher T/C = longer survival)?
**A.** 87, 111, 114, 120 [9 of 10 alive], 132, 145 % of control

**Q.** And the T/C [1]?
**A.** 100, 109, 112 % of control

**Q.** And the survivor count [1]?
**A.** 10 of 10 and 9 of 9

**Q.** What about the T/C [2] of the same compound?
**A.** 109, 120, 132 % of control

**Q.** And the survivor count [2]?
**A.** 9 of 10 and 9 of 9

**Q.** What about the survivor count (T/C endpoint: median survival time, dose: 100.0 micrograms/kg/injection, schedule: Q01DX009 (ip), vehicle: water, higher T/C = longer survival) of the same compound?
**A.** 9 of 10

**Q.** What about the survivor count (T/C endpoint: median survival time, dose: 200.0 micrograms/kg/injection, schedule: Q01DX009 (ip), vehicle: saline, higher T/C = longer survival) of the same compound?
**A.** 9 of 10

**Q.** What about the survivor count (T/C endpoint: median survival time, dose: 200.0 micrograms/kg/injection, schedule: Q01DX009 (ip), vehicle: water, higher T/C = longer survival) of the same compound?
**A.** 10 of 10

**Q.** What about the survivor count (T/C endpoint: median survival time, dose: 300.0 micrograms/kg/injection, schedule: Q04DX003 (ip), vehicle: water, higher T/C = longer survival) of the same compound?
**A.** 10 of 10

**Q.** What about the survivor count (T/C endpoint: median survival time, dose: 400.0 micrograms/kg/injection, schedule: Q01DX009 (ip), vehicle: saline, higher T/C = longer survival) of the same compound?
**A.** 1 of 10

**Q.** What about the survivor count (T/C endpoint: median survival time, dose: 600.0 micrograms/kg/injection, schedule: Q04DX003 (ip), vehicle: water, higher T/C = longer survival) of the same compound?
**A.** 10 of 10

**Q.** And the survivor count (T/C endpoint: median survival time, dose: 1200.0 micrograms/kg/injection, schedule: Q04DX003 (ip), vehicle: water, higher T/C = longer survival)?
**A.** 10 of 10

**Q.** How did the survivor count (T/C endpoint: mean tumor weight, dose: 10.0 mg/kg/injection, schedule: Q01DX011 (ip), vehicle: carboxymethylcellulose (CMC), higher T/C = larger tumour) turn out when `CC(=O)OC1CC(OC2C(O)CC(OC3C(O)CC(OC4CCC5(C)C(CCC6C5CCC5(C)C(C7=CC(=O)OC7)CCC65O)C4)OC3C)OC2C)OC(C)C1OC1OC(CO)C(O)C(O)C1O` (stereo unspecified) was run?
**A.** 0 of 6

**Q.** And the survivor count (T/C endpoint: mean tumor weight, dose: 20.0 mg/kg/injection, schedule: Q01DX011 (ip), vehicle: carboxymethylcellulose (CMC), higher T/C = larger tumour)?
**A.** 0 of 6

**Q.** And the survivor count (T/C endpoint: mean tumor weight, dose: 40.0 mg/kg/injection, schedule: Q01DX011 (ip), vehicle: carboxymethylcellulose (CMC), higher T/C = larger tumour)?
**A.** 0 of 6

**Q.** With `C[n+]1ccc(Nc2ccc(NC(=O)c3ccc(Nc4cc[n+](C)c5ccc(N)cc45)cc3)cc2)cc1` as the compound, how does the T/C (T/C endpoint: median survival time, dose: 2.0 mg/kg/injection, schedule: Q01DX009 (ip), vehicle: Klucel (hydroxypropylcellulose) (HPC), higher T/C = longer survival) read?
**A.** 130 % of control

**Q.** And the T/C (T/C endpoint: median survival time, dose: 4.0 mg/kg/injection, schedule: Q01DX009 (ip), vehicle: Klucel (hydroxypropylcellulose) (HPC), higher T/C = longer survival)?
**A.** 144 % of control

**Q.** And the T/C (T/C endpoint: median survival time, dose: 16.0 mg/kg/injection, schedule: Q01DX009 (ip), vehicle: Klucel (hydroxypropylcellulose) (HPC), higher T/C = longer survival)?
**A.** 138 % of control

**Q.** With `Nc1nc(-c2ccccc2N=NN2CCCC2)nc2ccccc12` as the compound, how does the survivor count (T/C endpoint: median survival time, dose: 50.0 mg/kg/injection, schedule: Q01DX009 (ip), vehicle: Klucel (hydroxypropylcellulose) (HPC), higher T/C = longer survival) read?
**A.** 10 of 10

**Q.** Which T/C (T/C endpoint: median survival time, dose: 30.0 mg/kg/injection, schedule: Q01DX009 (ip), vehicle: distilled water + Tween-80, higher T/C = longer survival) does the source give for `CCCCC(=O)OCC(=O)[C@]1(O)Cc2c(O)c3c(c(O)c2[C@@H](OC2CC(NC(=O)C(F)(F)F)C(O)C(C)O2)C1)C(=O)c1c(OC)cccc1C3=O` (stereo partly specified) here?
**A.** 136 % of control

**Q.** What about the T/C (T/C endpoint: median survival time, dose: 54.0 mg/kg/injection, schedule: Q04DX003 (ip), vehicle: distilled water + Tween-80, higher T/C = longer survival) of the same compound?
**A.** 126 % of control

**Q.** And the T/C (T/C endpoint: median survival time, dose: 80.0 mg/kg/injection, schedule: Q04DX003 (ip), vehicle: distilled water + Tween-80, higher T/C = longer survival)?
**A.** 146 % of control

**Q.** And the survivor count (T/C endpoint: median survival time, dose: 120.0 mg/kg/injection, schedule: Q04DX003 (ip), vehicle: distilled water + Tween-80, higher T/C = longer survival)?
**A.** 8 of 8

**Q.** With `CS(=O)(=O)OCC(O)C(O)C(O)C(O)COS(C)(=O)=O` (stereo unspecified) as the compound, how does the T/C (T/C endpoint: mean tumor weight, dose: 25.0 mg/kg/injection, schedule: Q01DX011 (ip), vehicle: saline, evaluated on day 12, higher T/C = larger tumour) read?
**A.** 125 % of control

**Q.** How did the survivor count (T/C endpoint: median survival time, dose: 4.0 mg/kg/injection, schedule: Q01DX009 (ip), vehicle: saline, higher T/C = longer survival) turn out when `CC[C@](O)(C(=O)O)c1cc2n(c(=O)c1CO)Cc1cc3ccccc3nc1-2` was run?
**A.** 10 of 10

**Q.** And the T/C (T/C endpoint: median survival time, dose: 5.0 mg/kg/injection, schedule: Q04DX003 (ip), vehicle: saline, higher T/C = longer survival)?
**A.** 137 % of control

**Q.** And the survivor count (T/C endpoint: median survival time, dose: 8.0 mg/kg/injection, schedule: Q01DX009 (ip), vehicle: saline, higher T/C = longer survival)?
**A.** 10 of 10

**Q.** What about the T/C (T/C endpoint: median survival time, dose: 10.0 mg/kg/injection, schedule: Q04DX003 (ip), vehicle: saline, higher T/C = longer survival) of the same compound?
**A.** 137 % of control

**Q.** And the T/C (T/C endpoint: median survival time, dose: 20.0 mg/kg/injection, schedule: Q04DX003 (ip), vehicle: saline, higher T/C = longer survival)?
**A.** 131 % of control

**Q.** What about the T/C (T/C endpoint: median survival time, dose: 40.0 mg/kg/injection, schedule: Q04DX003 (ip), vehicle: saline, higher T/C = longer survival) of the same compound?
**A.** 135 % of control
